{"source": "patent US6811990B1", "about": "“Methods and compositions for coupled luminescent assays” (priority 2001, dated 2004)", "tested_on": "E. coli", "assay": "Colony-forming unit (CFU) tests of antibiotic-treated cultures", "assay_type": "cell-based", "details": "E. coli cultures plated at various dilutions", "data": [{"molecule": "Nc1ccc(S(N)(=O)=O)cc1", "note": "[Sulfanilamide]", "values": [{"measurement": "toxicity by CFU assay", "value": "no toxicity by CFU assay"}]}]}
